PubChem BioAssay AID1159578 – Peter MacCallum Cancer Centre – 2015

Test: 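Genome-wide hunt for genes controlling movement of lymphatic endothelial cells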 (primary screen)
Cell system: human lymphatic endothelial cells
Reagent: siRNA pool against human genes, 40 nM
Duration: 48 h after transfection
Detection: 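Cells stained with dye and imaged after a scratch; covered wound area and nuclei counted, duplicates averaged, migration set against mock wells and turned into a robust z-score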
Scale: migration robust z-score: higher = faster migration into the scratch; nuclei per well: higher = more cells in the well
Active means: 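Migration changed when robust z exceeds 2 or falls below -2 and mean nuclei number is at least 3300; otherwise not called changed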
Calls: active = migration changed; inactive = no migration change, or too few cells
This is an unselected part of about 18,000 reagents. In the full data, about 1,030 (5.7%) are marked active. 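Inactive calls also include pools with fewer than 3300 nuclei, whose migration was not assessed.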 The raw values are shown without normalisation. Unmarked entries are inactive. Further read-outs or replicates are left out here.

| Target gene | migration robust z-score | nuclei per well, duplicate mean |
| --- | --- | --- |
| ZFHX4 | 1.16 | 6228 |
| TCAP | -1.36 | 5698 |
| CLPP | -0.5 | 4684 |
| FBXO7 | -2.78 (active) | 4724 |
| HPGD | -0.86 | 5223 |
| SEC14L2 | 0.7 | 4514 |
| FAM50B | -0.36 | 4750 |
| EIF2A | 0.29 | 5664 |
| FBXO3 | -0.62 | 5948 |
| C1QTNF9B | -1.24 | 6565 |
| MUC4 | 0.14 | 5536 |
| MARCKSL1 | -1.58 | 5258 |
| UXS1 | -0.34 | 7003 |
| FBXO42 | -0.21 | 5417 |
| IL3RA | -0.52 | 6938 |
| C1RL | -1.4 | 3866 |
| DNTTIP1 | -0.75 | 6024 |
| HMGB3 | -0.19 | 4834 |
| RABIF | -0.44 | 6518 |
| OGDHL | 0.46 | 5900 |
| ZBTB9 | 0.24 | 6050 |
| KAT8 | -1.27 | 4123 |
| POLR2D | -4.62 | 2834 |
| CSPG5 | 1.7 | 6018 |
| ISG15 | -1.31 | 5330 |
| OR2W1 | -1.65 | 4018 |
| SLC12A4 | -0.73 | 4986 |
| RANBP10 | -0.52 | 6354 |
| QARS1 | -0.56 | 8438 |
| TNFRSF25 | 0.86 | 6192 |
| GSAP | 1.14 | 6444 |
| RAB3D | -0.73 | 6070 |
| RIMBP2 | 0.72 | 5806 |
| MUCL3 | 0.36 | 5904 |
| SEPTIN11 | -0.68 | 5889 |
| GALNT5 | 0.24 | 5408 |
| GNA14 | 0.16 | 6063 |
| IL12RB1 | -0.46 | 3963 |
| FARS2 | -0.13 | 3682 |
| INCA1 | 0.7 | 5119 |
| FCAMR | -0.81 | 5652 |
| MCM7 | 0.25 | 7192 |
| ITPRID1 | -0.44 | 6004 |
| KIAA1217 | 0.2 | 6288 |
| ENTPD4 | 1.82 | 5842 |
| ZNF511 | -0.05 | 5674 |
| DYNLT2B | -0.55 | 7283 |
| CFL1 | -0.96 | 4057 |
| SIAH2 | 1.4 | 4608 |
| TFAP2B | 0.38 | 5830 |
| SPINK8 | 1.22 | 5768 |
| RNF222 | 0.42 | 5278 |
| CYP2S1 | -1.61 | 5121 |
| GCNT2 | -0.68 | 4926 |
| ARHGAP5 | -0.8 | 4643 |
| KRT85 | -0.19 | 7605 |
| KIFC1 | -0.94 | 4130 |

Hits, of those listed so far:
| Target gene | migration robust z-score | nuclei per well, duplicate mean |
| --- | --- | --- |
| FBXO7 | -2.78 (active) | 4724 |
